{
  "sequences": {"note": "The chains behind the UniProt entries cited, without tags or fusion partners.", "UniProt P13681": "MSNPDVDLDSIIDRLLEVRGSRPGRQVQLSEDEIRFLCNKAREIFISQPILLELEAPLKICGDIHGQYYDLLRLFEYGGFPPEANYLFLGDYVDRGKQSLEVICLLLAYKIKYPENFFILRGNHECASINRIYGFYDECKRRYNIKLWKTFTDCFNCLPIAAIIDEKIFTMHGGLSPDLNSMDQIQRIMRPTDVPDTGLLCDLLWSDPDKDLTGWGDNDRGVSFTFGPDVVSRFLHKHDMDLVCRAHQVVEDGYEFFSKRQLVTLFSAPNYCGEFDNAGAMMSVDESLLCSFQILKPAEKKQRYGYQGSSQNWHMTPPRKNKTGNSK", "UniProt Q10428": "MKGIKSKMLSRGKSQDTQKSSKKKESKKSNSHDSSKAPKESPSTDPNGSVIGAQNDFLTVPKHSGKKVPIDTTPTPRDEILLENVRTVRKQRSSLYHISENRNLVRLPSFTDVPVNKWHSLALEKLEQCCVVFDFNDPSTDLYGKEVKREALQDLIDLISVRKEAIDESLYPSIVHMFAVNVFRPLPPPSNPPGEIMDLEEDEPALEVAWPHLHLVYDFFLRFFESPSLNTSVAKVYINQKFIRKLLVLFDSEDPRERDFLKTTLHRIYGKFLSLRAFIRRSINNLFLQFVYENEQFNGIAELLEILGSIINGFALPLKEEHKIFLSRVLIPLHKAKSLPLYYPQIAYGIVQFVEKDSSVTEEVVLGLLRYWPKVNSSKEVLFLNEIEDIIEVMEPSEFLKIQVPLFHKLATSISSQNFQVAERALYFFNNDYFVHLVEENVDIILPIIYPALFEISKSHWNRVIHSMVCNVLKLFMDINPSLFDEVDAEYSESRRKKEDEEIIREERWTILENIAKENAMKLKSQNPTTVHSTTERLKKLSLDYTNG", "UniProt P23635": "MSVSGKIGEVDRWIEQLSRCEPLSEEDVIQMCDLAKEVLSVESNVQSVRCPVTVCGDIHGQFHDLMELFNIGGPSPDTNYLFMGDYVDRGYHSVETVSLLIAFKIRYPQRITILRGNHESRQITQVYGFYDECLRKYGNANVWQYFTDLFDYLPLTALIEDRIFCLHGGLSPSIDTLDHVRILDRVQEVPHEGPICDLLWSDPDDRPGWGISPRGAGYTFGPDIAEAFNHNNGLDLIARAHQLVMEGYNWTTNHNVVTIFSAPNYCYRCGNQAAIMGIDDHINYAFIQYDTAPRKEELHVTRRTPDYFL", "UniProt P23636": "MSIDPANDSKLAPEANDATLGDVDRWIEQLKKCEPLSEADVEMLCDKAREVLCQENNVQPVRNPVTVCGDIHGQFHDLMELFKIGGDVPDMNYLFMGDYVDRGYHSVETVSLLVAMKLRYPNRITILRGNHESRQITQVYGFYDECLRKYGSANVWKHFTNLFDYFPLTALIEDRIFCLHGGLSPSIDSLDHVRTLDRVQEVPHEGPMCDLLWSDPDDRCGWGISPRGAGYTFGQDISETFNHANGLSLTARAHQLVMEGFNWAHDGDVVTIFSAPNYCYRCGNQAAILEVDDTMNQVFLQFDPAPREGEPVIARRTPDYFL"},
  "source": "paper PMC10723533",
  "note": "These are yes or no findings as the source states them, for the method shown. Binding seen in cells or lysates may run through a third protein. These calls come from enrichment with a bait or labelling near it, and not all partners need be listed. Where a sequence is shown, tags or fusion partners need not be part of it.",
  "data": [
    {"target": "T1, Paa1-L-YFP (S. pombe) (UniProt Q9UT08)", "T1 sequence": "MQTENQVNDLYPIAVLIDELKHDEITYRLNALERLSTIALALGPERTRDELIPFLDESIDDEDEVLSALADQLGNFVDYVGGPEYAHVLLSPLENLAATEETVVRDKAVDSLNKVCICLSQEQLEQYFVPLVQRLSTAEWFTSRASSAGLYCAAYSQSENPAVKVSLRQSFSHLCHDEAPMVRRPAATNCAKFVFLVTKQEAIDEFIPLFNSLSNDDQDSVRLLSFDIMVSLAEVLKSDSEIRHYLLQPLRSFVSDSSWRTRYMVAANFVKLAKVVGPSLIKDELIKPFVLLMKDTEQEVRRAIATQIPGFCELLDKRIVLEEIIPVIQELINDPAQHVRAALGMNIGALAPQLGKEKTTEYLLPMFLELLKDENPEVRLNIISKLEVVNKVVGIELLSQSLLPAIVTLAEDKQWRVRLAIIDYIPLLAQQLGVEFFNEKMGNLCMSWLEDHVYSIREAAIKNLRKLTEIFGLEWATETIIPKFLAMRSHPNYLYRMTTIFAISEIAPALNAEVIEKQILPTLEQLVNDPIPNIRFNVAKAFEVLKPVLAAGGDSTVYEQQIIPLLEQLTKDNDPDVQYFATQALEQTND", "assay": "affinity purification with mass spectrometry; YFP-tagged bait (Paa1-L-YFP or Pab1-L-YFP) on GFP-Trap beads; cells 1 hour in EMM2-N, crosslinked with 1% formaldehyde for 10 min at 25 °C; lysis buffer 25 mM Tris HCl pH 7.5, 150 mM NaCl, 0.5% SDS (diluted to 0.1%), 1% NP40; washes with 500 mM NaCl", "values": [
      {"substance": "Dis2 (from UniProt P13681 1-327) (enzyme)", "binding": "binds"},
      {"substance": "Igo1 (S. pombe (endogenous in S. pombe cells))", "binding": "binds"},
      {"substance": "Pab1 (S. pombe (endogenous in S. pombe cells))", "binding": "binds"},
      {"substance": "Par1 (from UniProt Q10428 1-548)", "binding": "binds"},
      {"substance": "Ppa1 (from UniProt P23635 1-309) (enzyme)", "binding": "binds"},
      {"substance": "Ppa2 (from UniProt P23636 1-322) (enzyme)", "binding": "binds"},
      {"substance": "Ppa3 (S. pombe (endogenous in S. pombe cells)) (enzyme)", "binding": "binds"}
    ]}
  ]
}
